Results published in PubChem BioAssay AID434947 (Broad Institute, 2010).
The whole screen tested about 2,200 compounds, of which about 15 (0.7%) were called active.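 How the source made its calls: active means fitted half-maximal concentration for loss of luminescence signal no more than a set limit of log units above the top tested concentration; inconclusive means flat fit with 30 to 70% signal loss, or invalid fit; inactive means half-maximal concentration above that set limit.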 The list shows a part of the results.

test: ADP-Glo luciferase signal interference – biochemical, luminescence, cell-free, homogeneous, artefact control for GSK3beta inhibitor project, dose response (AID 434947); settings: Cell-free ADP-Glo reagents, 5 uM ADP;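 further: kinase-free counter screen of ADP-Glo detection reagents for GSK3beta hits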

| Structure (SMILES) | EC50 |
| --- | --- |
| COCCn1c(SCC(=O)NCc2ccc(F)cc2)nc2ccccc21 | inactive: > 30 µM |
| CCOC(=O)c1nnn(-c2nonc2N)c1CSc1ccc(C)cc1 | inactive: > 30 µM |
| O=C1N/C(=N/Nc2ccccc2)S/C1=C\c1ccccc1 | inactive: > 30 µM |
| CC(=O)NC(=S)Nc1ccccc1N1CCCCC1 | inactive: > 30 µM |
| CC(=O)COc1cc(C)cc2oc(=O)cc(-c3ccccc3)c12 | inactive: > 30 µM |
| CCc1nnc(NC(=O)c2cccc(OC)c2)s1 | inactive: > 30 µM |
| O=C(COC(=O)c1cc(=O)c2ccccc2o1)NC1CCCC1 | inactive: > 30 µM |
| Cc1cccc(Nc2ccccc2C(=O)O)c1C | inactive: > 30 µM |
| CNC(=O)NC(=O)CSc1nc(-c2cccs2)c(C#N)c(=O)[nH]1 | inactive: > 30 µM |
| CC(C)c1ccc(C(=O)NCCCN2CCN(CCCNC(=O)c3ccc(C(C)C)cc3)CC2)cc1 | inactive: > 30 µM |
| CCOC(=O)C1=C(C)Nc2ncnn2C1c1ccc(N(C)C)cc1 (stereo not given) | inactive: > 30 µM |
| CN(C)S(=O)(=O)c1cc(NC(=O)CN2CCN(c3ccc(O)cc3)CC2)ccc1Cl | inactive: > 30 µM |
| CCc1nn(CC(=O)NCCN2CCN(C)CC2)c(=O)c2cc3c(OC)cccc3n12 | inactive: > 30 µM |
| C=CCNC(=O)c1ccc(OC)cc1OC | inactive: > 30 µM |
| O=C(O)COc1ccc(C(=O)c2ccccc2)cc1 | inactive: > 30 µM |
| Cc1ccccc1NC(=O)Nc1ccccn1 | inactive: > 30 µM |
| Cc1nn(Cc2ccc(Cl)c(Cl)c2)c(C)c1NC(=O)c1noc2c1CCCCC2 | inactive: > 30 µM |
| O=C1NC(=NCc2ccccc2)S/C1=C\c1ccccc1 | inactive: > 30 µM |
| CCOC(=O)COC(=O)c1ccc(O)cc1 | inactive: > 30 µM |
| COc1ccc(/C(C)=N/NC(=O)CNC(=O)Cc2ccccc2)c(OC)c1 | inactive: > 30 µM |

Two of the compounds above, field by field:
COCCn1c(SCC(=O)NCc2ccc(F)cc2)nc2ccccc21
  EC50: inactive: > 30 µM
O=C(O)COc1ccc(C(=O)c2ccccc2)cc1
  EC50: inactive: > 30 µM

Carrying on:

| Structure (SMILES) | EC50 |
| --- | --- |
| Cc1cccc(NC(=O)CSc2nc(-c3ccccc3)c(C#N)c(=O)[nH]2)c1C | inactive: > 30 µM |
| Cn1c(SCc2ccccc2C#N)nnc1-c1ccncc1 | inactive: > 30 µM |
| Cc1c(C=Nc2ccc(S(=O)(=O)CCO)cc2)c(O)[nH]c(=O)c1C#N | inactive: > 30 µM |
| CCCn1nc(NC(=O)CC(C)C)c2cc3ccccc3nc21 | inactive: > 30 µM |
| COC(=O)C1=C(C)N(CCc2cc(OC)c(OC)c(OC)c2)C(=O)N[C@H]1c1ccccc1 | inactive: > 30 µM |
| CCOC(=O)c1nnn(-c2nonc2N)c1CN1CCc2ccccc2C1 | inactive: > 30 µM |
| Cc1ccnc(NC(=O)CCC(=O)N(CC(=O)NCc2ccccc2)Cc2cccs2)c1 | inactive: > 30 µM |
| COc1ccc(C)cc1S(=O)(=O)Nc1cc2c3c(c1)CCN3C(=O)CC2 | inactive: > 30 µM |
| COc1ccc(C2C3=C(CC(C)(C)CC3=O)Nc3n[nH]c(C)c32)cc1 (stereo not given) | inactive: > 30 µM |
| NC(=O)CN(c1ccc([N+](=O)[O-])cc1)S(=O)(=O)c1ccccc1 | inactive: > 30 µM |
| CCOC(=O)COn1c(=O)c(-c2cccs2)[n+]([O-])c2ccccc21 | inactive: > 30 µM |
| Nc1nc(NCc2ccccc2)nc(NCCO)c1[N+](=O)[O-] | inactive: > 30 µM |
| Cc1ccc2c(c1)Oc1ccc([N+](=O)[O-])cc1C(=O)N2 | inactive: > 30 µM |
| O=C(CN1CCN(S(=O)(=O)c2ccccc2)CC1)Nc1ccc([N+](=O)[O-])cc1 | inactive: > 30 µM |
| O=[N+]([O-])c1cc([N+](=O)[O-])c(N2CCCCCC2)cc1NCCO | inactive: > 30 µM |
| CN(CC(=O)OCC(=O)Nc1ccccc1)S(=O)(=O)c1ccc(Cl)cc1 | inactive: > 30 µM |
| NC(=O)COC(=O)c1ccc(-c2ccc(O)cc2)cc1 | inactive: > 30 µM |
| COc1ccc(/C=C2/Sc3ccc(C(=O)NCCCN4CCOCC4)cc3NC2=O)cc1OC | inactive: > 30 µM |
| Cc1cccc(Nc2nc(N)c([N+](=O)[O-])c(NCCO)n2)c1 | inactive: > 30 µM |
| Cc1nn(CC(=O)NCCCN2CCCCC2)c(=O)c2cccn12 | inactive: > 30 µM |

| Structure (SMILES) | EC50 |
| --- | --- |
| COC(CNC(=O)CCc1c(C)nc2c(c(C)nn2-c2ccc(C)cc2)c1C)OC | inactive: > 30 µM |
| O=c1cc(-c2ccccc2Cl)oc2c([N+](=O)[O-])c(O)cc(O)c12 | inactive: > 30 µM |
| Cn1c(SCC(=O)NC2CCCCC2)nnc1-c1ccccn1 | inactive: > 30 µM |
| c1ccc2c(CSc3nnc(-c4ccncc4)o3)cccc2c1 | inactive: > 30 µM |
| COc1cccc2cc(CC(=O)c3cc(C)ccc3C)c(=O)oc12 | inactive: > 30 µM |
| COc1cc2c(cc1OC)C(C)N(C(=O)c1ccc(Br)o1)CC2 (stereo not given) | inactive: > 30 µM |
| CCC(=O)Nc1sc2c(c1C(N)=O)CCN(C(C)=O)C2 | inactive: > 30 µM |
| O=C(Nc1ccncc1)c1ccccc1-c1ccccc1 | inactive: > 30 µM |
| Cc1ccc(C(=O)O/N=C(\N)c2ccccn2)c(Cl)c1 | active: 26.6 µM |
| Cc1ccc(/C=N\NC(=O)c2cncc(Br)c2)o1 | inactive: > 30 µM |
| COc1cccc(/C=C2\Sc3ccc(C(=O)NCC4CCCO4)cc3N(C)C2=O)c1 (stereo not given) | inactive: > 30 µM |
| O=C(CCc1ccccc1)Nc1cccc([N+](=O)[O-])c1 | inactive: > 30 µM |
| O=C(Nc1ccc2c(c1)OCO2)Nc1ccc(F)cc1F | inactive: > 30 µM |
| CCOC(=O)c1nnn(-c2nonc2N)c1CN(CC)CC | inactive: > 30 µM |
| N#Cc1cccc(-c2nnc(SCc3ccccc3C#N)o2)c1 | inactive: > 30 µM |
| COc1ccc(-c2nn(-c3ccccc3)cc2/C=N/NC(N)=S)cc1OC | inactive: > 30 µM |
| O=[N+]([O-])c1ccccc1S(=O)(=O)Nc1ccc(S(=O)(=O)Nc2nccs2)cc1 | inactive: > 30 µM |
| COc1ccc(-c2csc(N3CCOCC3)n2)cc1OC | inactive: > 30 µM |
| CCOC(=O)CSc1ccc2nnc(-c3cccnc3)n2n1 | inactive: > 30 µM |
| COc1ccc(/C=C2\Sc3ccc(C(=O)NCCN4CCCCCC4)cc3N(C)C2=O)cc1 | inactive: > 30 µM |
